These are yes or no findings as the source states them, for the method shown. Some entries that bind do so weakly or less than the wild type. For some of these results: Tags and fused reporters may be left off the sequences shown.
Tests used:
[1] = target: H3K9M peptide (biotinylated histone H3 peptide with lysine 9 to methionine); experiment: pull-down; 1 μg biotinylated histone peptide on M280 streptavidin Dynabeads; 2 μg EHMT2/G9a or 5 μg EHMT1/GLP incubated overnight at 4 °C; washes with 300 mM KCl, 0.2% Triton-X 100, 1 mM PMSF; bound enzyme detected by anti-Flag or anti-GST western blot; both purified
[2] = target: T1, H3K23M peptide (biotinylated histone H3 peptide with lysine 23 to methionine); experiment: as above
T1 sequence (peptide, biotin at the C-terminus): KQLASMAARKSAPATGGIK

The chains behind the UniProt entries cited, without tags or fusion partners.
UniProt Q9H9B1: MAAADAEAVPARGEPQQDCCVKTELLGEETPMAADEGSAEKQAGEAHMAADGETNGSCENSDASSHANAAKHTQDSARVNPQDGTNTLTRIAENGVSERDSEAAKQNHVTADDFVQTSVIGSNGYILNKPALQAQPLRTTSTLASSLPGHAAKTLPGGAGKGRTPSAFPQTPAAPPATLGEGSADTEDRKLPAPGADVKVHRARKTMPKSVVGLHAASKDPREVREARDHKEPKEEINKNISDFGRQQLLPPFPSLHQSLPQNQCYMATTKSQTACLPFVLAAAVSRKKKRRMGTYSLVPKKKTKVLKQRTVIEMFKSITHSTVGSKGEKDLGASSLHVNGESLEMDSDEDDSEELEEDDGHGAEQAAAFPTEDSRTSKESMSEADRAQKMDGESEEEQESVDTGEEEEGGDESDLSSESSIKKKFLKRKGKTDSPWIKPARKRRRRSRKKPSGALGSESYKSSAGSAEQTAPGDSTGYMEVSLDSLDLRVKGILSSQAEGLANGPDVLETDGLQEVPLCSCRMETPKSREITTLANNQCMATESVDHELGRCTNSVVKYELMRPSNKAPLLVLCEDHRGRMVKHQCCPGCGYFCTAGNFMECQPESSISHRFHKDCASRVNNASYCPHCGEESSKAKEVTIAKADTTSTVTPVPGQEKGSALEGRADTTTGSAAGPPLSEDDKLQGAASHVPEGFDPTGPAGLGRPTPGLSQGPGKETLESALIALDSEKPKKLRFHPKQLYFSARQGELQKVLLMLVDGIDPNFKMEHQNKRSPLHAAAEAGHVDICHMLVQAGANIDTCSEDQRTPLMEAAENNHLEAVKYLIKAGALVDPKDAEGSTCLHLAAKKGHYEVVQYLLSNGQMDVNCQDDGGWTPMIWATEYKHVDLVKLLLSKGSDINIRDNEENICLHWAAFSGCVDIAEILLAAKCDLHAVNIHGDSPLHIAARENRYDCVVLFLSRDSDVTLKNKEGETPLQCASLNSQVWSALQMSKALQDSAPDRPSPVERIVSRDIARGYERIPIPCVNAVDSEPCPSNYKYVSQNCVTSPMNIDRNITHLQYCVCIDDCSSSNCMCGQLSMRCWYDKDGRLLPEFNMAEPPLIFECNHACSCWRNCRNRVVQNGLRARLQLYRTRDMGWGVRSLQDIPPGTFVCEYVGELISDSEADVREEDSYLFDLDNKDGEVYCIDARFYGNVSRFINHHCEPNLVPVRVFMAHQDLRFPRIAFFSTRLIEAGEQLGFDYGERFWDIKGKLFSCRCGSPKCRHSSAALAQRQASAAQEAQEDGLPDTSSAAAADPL
UniProt Q96KQ7: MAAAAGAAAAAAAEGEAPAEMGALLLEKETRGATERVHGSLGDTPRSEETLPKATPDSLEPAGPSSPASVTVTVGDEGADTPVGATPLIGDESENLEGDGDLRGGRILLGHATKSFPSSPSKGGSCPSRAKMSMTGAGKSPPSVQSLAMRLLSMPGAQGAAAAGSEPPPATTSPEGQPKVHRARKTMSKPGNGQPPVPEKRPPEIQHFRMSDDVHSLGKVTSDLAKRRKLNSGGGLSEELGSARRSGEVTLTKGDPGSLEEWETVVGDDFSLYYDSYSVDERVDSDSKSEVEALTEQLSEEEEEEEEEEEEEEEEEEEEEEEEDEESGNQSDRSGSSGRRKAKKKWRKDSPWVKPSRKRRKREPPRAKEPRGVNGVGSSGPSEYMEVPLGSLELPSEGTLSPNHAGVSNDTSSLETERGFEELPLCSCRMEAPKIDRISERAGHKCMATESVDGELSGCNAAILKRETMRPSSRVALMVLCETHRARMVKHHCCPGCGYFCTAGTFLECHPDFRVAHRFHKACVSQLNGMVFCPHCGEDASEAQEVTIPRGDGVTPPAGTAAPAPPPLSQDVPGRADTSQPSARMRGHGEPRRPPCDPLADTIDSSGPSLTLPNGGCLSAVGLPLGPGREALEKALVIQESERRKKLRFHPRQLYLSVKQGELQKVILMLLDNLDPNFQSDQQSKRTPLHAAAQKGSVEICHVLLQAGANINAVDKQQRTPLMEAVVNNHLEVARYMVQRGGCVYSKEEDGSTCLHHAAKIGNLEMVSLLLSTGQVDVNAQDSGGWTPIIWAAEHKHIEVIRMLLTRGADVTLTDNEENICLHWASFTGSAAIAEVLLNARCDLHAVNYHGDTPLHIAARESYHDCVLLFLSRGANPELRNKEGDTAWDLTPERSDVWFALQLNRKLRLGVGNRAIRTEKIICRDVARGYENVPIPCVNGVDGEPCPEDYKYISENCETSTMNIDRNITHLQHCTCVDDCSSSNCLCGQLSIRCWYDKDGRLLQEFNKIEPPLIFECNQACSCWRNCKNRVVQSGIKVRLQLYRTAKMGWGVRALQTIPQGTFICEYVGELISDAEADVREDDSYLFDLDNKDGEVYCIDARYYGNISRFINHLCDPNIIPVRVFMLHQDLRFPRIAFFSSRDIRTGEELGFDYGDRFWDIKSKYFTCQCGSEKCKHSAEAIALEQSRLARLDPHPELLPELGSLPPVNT

Row | binding [1] | binding [2] | Substance
1 | binds | no binding (tested: 5 μg of EHMT1/GLP) | recombinant EHMT1/GLP (euchromatic histone methyltransferase 1), GST-tagged (from UniProt Q9H9B1 1-1298) (enzyme)
2 | binds | binds | recombinant EHMT2/G9a (euchromatic histone methyltransferase 2), Flag-tagged (from UniProt Q96KQ7 1-1210) (enzyme)

From article PMC9677696
